Laboratory results: doi:10.1101/2023.05.01.538962
These are yes or no findings as the source states them, for the method shown. Binding seen in cells or lysates may run through a third protein.

Protein sequences, listed by entry. Tags and fused reporters are not part of them. Residues count along the entry.
UniProt P01024, residues 23-1663: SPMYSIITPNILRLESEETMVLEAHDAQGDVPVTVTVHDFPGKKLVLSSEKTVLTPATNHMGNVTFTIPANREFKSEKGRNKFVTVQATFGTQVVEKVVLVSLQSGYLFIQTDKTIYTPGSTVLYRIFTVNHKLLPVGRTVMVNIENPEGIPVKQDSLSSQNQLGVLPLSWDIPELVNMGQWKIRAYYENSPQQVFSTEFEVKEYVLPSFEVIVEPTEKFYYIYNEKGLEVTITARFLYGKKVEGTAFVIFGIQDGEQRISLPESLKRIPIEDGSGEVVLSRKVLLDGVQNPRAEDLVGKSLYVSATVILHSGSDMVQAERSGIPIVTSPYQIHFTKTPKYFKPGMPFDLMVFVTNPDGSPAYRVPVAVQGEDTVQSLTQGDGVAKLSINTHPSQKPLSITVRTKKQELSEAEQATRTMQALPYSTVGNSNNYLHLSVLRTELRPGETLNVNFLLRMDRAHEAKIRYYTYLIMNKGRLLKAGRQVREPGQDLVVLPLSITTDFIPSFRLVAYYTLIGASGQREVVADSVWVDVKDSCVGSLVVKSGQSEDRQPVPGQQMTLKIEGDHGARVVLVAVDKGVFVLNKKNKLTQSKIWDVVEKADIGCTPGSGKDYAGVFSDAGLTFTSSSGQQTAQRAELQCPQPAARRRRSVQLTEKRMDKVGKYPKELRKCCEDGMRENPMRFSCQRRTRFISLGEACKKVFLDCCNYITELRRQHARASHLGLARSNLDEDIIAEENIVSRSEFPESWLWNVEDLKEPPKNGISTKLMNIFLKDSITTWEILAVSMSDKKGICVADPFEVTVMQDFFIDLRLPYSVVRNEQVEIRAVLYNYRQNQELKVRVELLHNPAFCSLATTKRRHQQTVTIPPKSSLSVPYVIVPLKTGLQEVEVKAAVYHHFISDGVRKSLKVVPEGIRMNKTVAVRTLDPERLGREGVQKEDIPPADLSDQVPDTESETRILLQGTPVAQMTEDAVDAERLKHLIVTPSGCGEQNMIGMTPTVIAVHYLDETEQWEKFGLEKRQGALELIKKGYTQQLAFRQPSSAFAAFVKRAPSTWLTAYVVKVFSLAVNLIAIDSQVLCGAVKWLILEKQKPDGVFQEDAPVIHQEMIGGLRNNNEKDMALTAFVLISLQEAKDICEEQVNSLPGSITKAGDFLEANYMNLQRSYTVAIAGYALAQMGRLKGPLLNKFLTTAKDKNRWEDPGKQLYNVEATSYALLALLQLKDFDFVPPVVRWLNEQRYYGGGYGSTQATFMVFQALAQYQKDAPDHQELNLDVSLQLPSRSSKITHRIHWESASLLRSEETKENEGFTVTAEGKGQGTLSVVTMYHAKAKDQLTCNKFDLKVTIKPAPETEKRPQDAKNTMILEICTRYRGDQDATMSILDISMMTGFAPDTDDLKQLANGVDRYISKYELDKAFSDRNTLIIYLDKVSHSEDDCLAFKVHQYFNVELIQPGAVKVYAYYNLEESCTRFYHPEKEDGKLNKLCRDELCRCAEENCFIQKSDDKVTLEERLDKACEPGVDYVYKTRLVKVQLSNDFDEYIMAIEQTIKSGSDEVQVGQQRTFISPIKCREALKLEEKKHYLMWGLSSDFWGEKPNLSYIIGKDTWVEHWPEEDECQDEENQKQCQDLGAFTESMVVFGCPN
UniProt P99999: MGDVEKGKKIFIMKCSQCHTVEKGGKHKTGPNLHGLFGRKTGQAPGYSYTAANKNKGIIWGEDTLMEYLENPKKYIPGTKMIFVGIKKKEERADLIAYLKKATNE

Target: Flag-pro-C3 (full-length single chain human pro-C3 with a Flag-tag at its C-terminal) (human) (UniProt P01024)
Test: pull-down

binding: no binding
Substance: cytochrome c (endogenous, AC16 cells) (from UniProt P99999 1-105)
